Assay results: patent US20260250378A1
Results are given in words; binding and its absence hold for the method and conditions named. Some entries that bind do so weakly or less than the wild type.

Chains of the proteins cited; added tags and fusions are not shown. Residues count along the entry.
UniProt P27824, residues 21-481: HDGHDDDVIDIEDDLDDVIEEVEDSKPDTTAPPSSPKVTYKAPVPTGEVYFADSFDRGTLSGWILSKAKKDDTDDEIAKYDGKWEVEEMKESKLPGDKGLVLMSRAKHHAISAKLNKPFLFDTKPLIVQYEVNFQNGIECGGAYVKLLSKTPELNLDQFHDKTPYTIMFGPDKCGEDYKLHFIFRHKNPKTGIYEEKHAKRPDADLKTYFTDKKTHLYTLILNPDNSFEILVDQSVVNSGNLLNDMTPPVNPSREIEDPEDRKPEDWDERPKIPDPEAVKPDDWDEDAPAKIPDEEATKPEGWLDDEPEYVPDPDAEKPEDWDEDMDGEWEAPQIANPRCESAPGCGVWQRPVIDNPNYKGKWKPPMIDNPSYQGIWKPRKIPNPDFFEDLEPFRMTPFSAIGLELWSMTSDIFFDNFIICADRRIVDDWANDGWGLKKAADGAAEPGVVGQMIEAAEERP

Columns and labels:
[1] = target: CNX-his antigen (Genscript) (human) (UniProt P27824); test: ELISA, legend of FIG. 56
[2] = target: CNX-his antigen (Genscript) (human) (UniProt P27824); test: ELISA with serial dilutions, legend of FIG. 57
[3] = target: CNX-his antigen (Genscript) (human) (UniProt P27824); test: ELISA, His-tagged human CNX coated, antibody at 10 µg/ml
[4] = target: CNX-his antigen (Genscript) (human) (UniProt P27824); test: ELISA, His-tagged human CNX coated on wells, BSA-coated control wells
[5] = target: CNX-his antigen (Genscript) (human) (UniProt P27824); test: ELISA with serial dilutions of the antibody on coated His-tagged human CNX

Measured: binding

B1: monoclonal anti-CNX antibody clone 2G9 (antibody, V domains shown)
VH: QVTLKESGGGVVQPGRSLRLSCAASGFTFSSYGMHWVRQAPGKGLEWVAVISYDGSNKYYADSVKGRFTISRDNSKNTLYLQMNSLRAEDTAVYYCTQGRDYWGQGTLVTVSS
VL: QAVLTQPSSLSASPGASASLTCTLRSGINVGTYRIYWYQQKPGSPPQYLLRYKSDSDKQQGSGVPSRFSGSKDASANAGILLISGLQSEDEADYYCMIWHSSAWVFGGGTKLTVL
binds: [1] | [2] | [3] | [4] | [5]
